From PMC2865516
No constants are given. Whether binding was seen depends on the method and setting. In cells and extracts the contact can be indirect. Some binding calls cover weakened binding; strength is not graded here.

Protein sequences, listed by entry. Tags and fused reporters are not part of them.
UniProt P00546: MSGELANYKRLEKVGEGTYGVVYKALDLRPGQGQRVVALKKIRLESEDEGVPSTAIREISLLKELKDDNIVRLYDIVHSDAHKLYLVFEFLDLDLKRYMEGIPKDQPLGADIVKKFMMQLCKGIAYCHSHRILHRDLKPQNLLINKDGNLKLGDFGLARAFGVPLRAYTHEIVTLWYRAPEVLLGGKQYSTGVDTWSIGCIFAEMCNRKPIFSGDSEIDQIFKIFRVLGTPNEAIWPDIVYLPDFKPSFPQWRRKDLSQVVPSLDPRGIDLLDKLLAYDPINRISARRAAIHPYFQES

Biological target: T1, Clb2-TAP (S. cerevisiae) (UniProt P24869)
T1 sequence: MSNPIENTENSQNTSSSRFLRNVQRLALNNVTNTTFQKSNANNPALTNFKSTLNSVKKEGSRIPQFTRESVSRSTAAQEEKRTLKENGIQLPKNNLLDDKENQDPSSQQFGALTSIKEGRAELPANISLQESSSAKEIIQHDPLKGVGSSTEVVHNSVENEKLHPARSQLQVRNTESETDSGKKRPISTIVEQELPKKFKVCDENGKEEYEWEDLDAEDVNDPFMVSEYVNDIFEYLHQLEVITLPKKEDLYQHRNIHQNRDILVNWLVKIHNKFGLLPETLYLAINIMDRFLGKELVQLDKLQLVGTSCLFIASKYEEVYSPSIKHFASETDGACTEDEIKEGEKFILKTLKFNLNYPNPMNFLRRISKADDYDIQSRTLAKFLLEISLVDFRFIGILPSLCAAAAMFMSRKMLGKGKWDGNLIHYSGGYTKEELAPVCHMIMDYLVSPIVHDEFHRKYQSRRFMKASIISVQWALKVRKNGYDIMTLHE
Test: pull-down; Clb2-TAP captured from yeast lysate (modified RIPA buffer) on IgG-Sepharose beads, released by overnight AcTEV cleavage at 4°C (abbreviated TAP protocol); Cdc28 in the eluate quantified by western blot with anti-PSTAIR against a GST-Cdk1 standard

For “Cdc28 (from UniProt P00546 1-298) (enzyme)”, the binding was “binds”.
